From PMC11542591
No constants are given. Whether binding was seen depends on the method and setting. Some results given as binding are weak or reduced against the parent protein; the word gives no strength.

Target: T1, STRADα (UniProt Q7RTN6)
T1 sequence: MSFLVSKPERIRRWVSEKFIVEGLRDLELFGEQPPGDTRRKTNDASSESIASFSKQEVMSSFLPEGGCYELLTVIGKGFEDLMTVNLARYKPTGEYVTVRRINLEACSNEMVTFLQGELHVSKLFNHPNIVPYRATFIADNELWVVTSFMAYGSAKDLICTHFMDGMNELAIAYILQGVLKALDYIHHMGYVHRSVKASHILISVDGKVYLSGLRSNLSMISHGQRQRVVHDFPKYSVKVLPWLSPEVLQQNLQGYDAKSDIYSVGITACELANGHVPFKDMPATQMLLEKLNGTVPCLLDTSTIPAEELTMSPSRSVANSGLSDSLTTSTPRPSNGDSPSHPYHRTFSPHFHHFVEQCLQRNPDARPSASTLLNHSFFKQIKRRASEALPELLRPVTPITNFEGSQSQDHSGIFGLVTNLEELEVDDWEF
Test: cryo-EM structure; purified heterotrimer at 3 μM on Quantifoil Au holey-carbon grids; four datasets (Alpine 120 and 200 keV on Glacios, K3 200 keV on Glacios, K3 300 keV on Krios); no nucleotide added; both purified

binding: binds
B1: MO25α (protein, UniProt Q9Y376 1-341)
chain: MPFPFGKSHKSPADIVKNLKESMAVLEKQDISDKKAEKATEEVSKNLVAMKEILYGTNEKEPQTEAVAQLAQELYNSGLLSTLVADLQLIDFEGKKDVAQIFNNILRRQIGTRTPTVEYICTQQNILFMLLKGYESPEIALNCGIMLRECIRHEPLAKIILWSEQFYDFFRYVEMSTFDIASDAFATFKDLLTRHKLLSAEFLEQHYDRFFSEYEKLLHSENYVTKRQSLKLLGELLLDRHNFTIMTKYISKPENLKLMMNLLRDKSRNIQFEAFHVFKVFVANPNKTQPILDILLKNQAKLIEFLSKFQNDRTEDEQFNDEKTYLVKQIRDLKRPAQQEA
